According to paper PMC6212833 (mBio, 2018):
Structures can show the parent of a compound that is named as a salt.

Key:
[1] = test system: B. mandrillaris trophozoites; type: cell-based, Balamuthia mandrillaris; conditions: 20 µM, 72 h
U87 (glial) cells = assay: Cytotoxicity dose response, U87; type: cell-based, human; conditions: cell line CC50/B. mandrillaris trophozoite IC50
Protocol: (§1) B. mandrillaris trophozoites were seeded at 4,000 amoebae per well into opaque and clear-bottom 96-well plates (Corning). Homogenous populations of B. mandrillaris cysts generated by galactose induction were seeded at 4,000 amoebae per well into opaque 96-well plates. HFF-1 (fibroblast), H4 (glial), U87 (glial), HEK-293T (kidney), and Hep-G2 (liver) cells were seeded at 3,000 cells per well in opaque 96-well plates 24 h prior to addition of drug. Stocks of nitroxoline (Selleck Chemicals) were dissolved in 100% DMSO at 10 mM. Stocks of azithromycin (Selleck Chemicals), pentamidine isethionate (Selleck Chemicals), and miltefosine (Selleck Chemicals) were dissolved in water at 10 mM. Drug stocks were serially diluted in water to generate 12-point dilution series, which were then used to treat assay wells containing B. mandrillaris or human cells at final concentrations ranging from 0.39 µM to 400 µM in 100-µl total well volumes. Control wells were treated with vehicle (DMSO or water) at concentrations corresponding to the final vehicle concentrations in each drug dilution series. After incubation for 72 h, 50 µl of CTG was added to all assay wells. Luminescence was measured with a Promega GloMax-Multi+ plate reader 2, 4, and […] after CTG addition. All dose-response experiments were performed with at least three independent biological replicates. IC50 values were determined as previously described. To quantify encystment under treated and untreated conditions, amoebae in individual assay wells were resuspended thoroughly and the number of cysts and number of trophozoites in 10-µl samples were counted by the use of a hemocytometer (SKC, Inc.). Cysts and trophozoites are morphologically distinct, making them simple to distinguish with bright-field microscopy (example images are shown in Fig. S1 in the supplemental material). Encystment assays were performed with three independent biological replicates.

H4 (glial) cells = assay: Cytotoxicity dose response, H4; type: cell-based, human; conditions: cell line CC50/B. mandrillaris trophozoite IC50
Protocol: as §1

HEK-293T (kidney) cells = assay: Cytotoxicity dose response, HEK-293T; type: cell-based, human; conditions: cell line CC50/B. mandrillaris trophozoite IC50
Protocol: as §1

HFF-1 (fibroblast) cells = assay: Cytotoxicity dose response, HFF-1; type: cell-based, human; conditions: cell line CC50/B. mandrillaris trophozoite IC50
Protocol: as §1

Hep-G2 (liver) cells = assay: Cytotoxicity dose response, Hep-G2; type: cell-based, human; conditions: cell line CC50/B. mandrillaris trophozoite IC50
Protocol: as §1

[2] = test system: U87, H4, HEK-293T, HFF-1 and Hep-G2 cell lines; assay: Cytotoxicity, mean of all cell lines; type: cell-based, human; conditions: cell line CC50/B. mandrillaris trophozoite IC50
Protocol: as §1

[3] = test system: B. mandrillaris trophozoites; assay: Nitroxoline structure-activity relationship dose response (CellTiter Glo); type: cell-based, Balamuthia mandrillaris; conditions: 72 h, sigmoidal curve fit

C[n+]1c2cc(N)ccc2cc2ccc(N)cc21 [Acriflavinium Hydrochloride]
B-score [1]: 20.40

CCCCC(CC)CNC(=N)NC(=N)NCCCCCCNC(=N)NC(=N)NCC(CC)CCCC (stereo not shown) [Alexidine Hydrochloride]
B-score [1]: 16.57

CC(C)c1c(C(=O)Nc2ccccc2)c(-c2ccccc2)c(-c2ccc(F)cc2)n1CC[C@@H](O)C[C@@H](O)CC(=O)O [Atorvastatin]
B-score [1]: 6.68

CC[C@H]1OC(=O)[C@H](C)[C@@H](O[C@H]2C[C@@](C)(OC)[C@@H](O)[C@H](C)O2)[C@H](C)[C@@H](O[C@@H]2O[C@H](C)C[C@H](N(C)C)[C@H]2O)[C@](C)(O)C[C@@H](C)CN(C)[C@H](C)[C@@H](O)[C@]1(C)O [Azithromycin]
SI U87 cell line (U87 (glial) cells): 0.21 | SI H4 cell line (H4 (glial) cells): 0.39 | SI HEK-293T cell line (HEK-293T (kidney) cells): 0.59 | SI HFF-1 cell line (HFF-1 (fibroblast) cells): 0.47 | SI Hep-G2 cell line (Hep-G2 (liver) cells): 0.27 | SI mean of all cell lines [2]: 0.39

CO/N=C(\C(=O)N[C@@H]1C(=O)N2C(C(=O)O)=C(COC(N)=O)CS[C@H]12)c1ccco1 [Cefuroxime Sodium]
B-score [1]: 2.50

COCc1c(C(C)C)nc(C(C)C)c(/C=C/[C@@H](O)C[C@@H](O)CC(=O)O)c1-c1ccc(F)cc1 [Cerivastatin, Cerivastatin Na, Cerivastatin]
B-score [1]: 13.33

CCCCCCCCCCCCCCCC[N+](C)(C)C [Cetrimonium]
B-score [1]: 10.02

[H]/N=C(\N/C(=N/[H])NCCCCCCNC(=N)NC(=N)Nc1ccc(Cl)cc1)Nc1ccc(Cl)cc1 [Chlorhexidine]
B-score [1]: 20.76

Cc1cc(N)c2ccccc2[n+]1CCCCCCCCCC[n+]1c(C)cc(N)c2ccccc21 [Dequadin]
B-score [1]: 13.04

Oc1ccc(Cl)cc1Cc1cc(Cl)ccc1O [Dichlorophene, Dichlorophen, Dichlorophene]
B-score [1]: 5.34

N=C(N)c1ccc(/N=N/Nc2ccc(C(=N)N)cc2)cc1 [Diminazene]
B-score [1]: 9.37

O=C(O)c1ccccc1-c1c2cc(I)c(=O)c(I)c-2oc2c(I)c(O)c(I)cc12 [Erythrosine Sodium]
B-score [1]: 14.81

C[CH2][Hg][S]c1ccccc1C(=O)O [Ethylmercurithiosalicylic acid]
B-score [1]: 19.75

Cc1cc(-c2ccc(/N=N/c3ccc4c(S(=O)(=O)O)cc(S(=O)(=O)O)c(N)c4c3O)c(C)c2)ccc1/N=N/c1ccc2c(S(=O)(=O)O)cc(S(=O)(=O)O)c(N)c2c1O [Evans Blue]
B-score [1]: 10.99

C=C1C[C@@H]2[C@H](CC[C@]3(C)C(=O)CC[C@@H]23)[C@@]2(C)C=CC(=O)C=C12 [Exemestane]
B-score [1]: 7.82

CN(C)c1ccc(C(=C2C=CC(=[N+](C)C)C=C2)c2ccc(N(C)C)cc2)cc1 [Gentian Violet]
B-score [1]: 9.22

CC[n+]1c(-c2ccccc2)c2cc(N)ccc2c2ccc(N)cc21 [Homidium Bromide]
B-score [1]: 3.74

NC(=O)NO [Hydroxyurea]
B-score [1]: 2.92

CC#C[C@]1(O)CC[C@H]2[C@@H]3CCC4=CC(=O)CCC4=C3[C@@H](c3ccc(N(C)C)cc3)C[C@@]21C [Mifepristone]
B-score [1]: 2.28

CCCCCCCCCCCCCCCCOP(=O)([O-])OCC[N+](C)(C)C [Miltefosine]
SI U87 cell line (U87 (glial) cells): 0.55 | SI H4 cell line (H4 (glial) cells): 0.15 | SI HEK-293T cell line (HEK-293T (kidney) cells): 1.21 | SI HFF-1 cell line (HFF-1 (fibroblast) cells): 1.10 | SI Hep-G2 cell line (Hep-G2 (liver) cells): 0.94 | SI mean of all cell lines [2]: 0.79

NC(=O)c1ccc[n+]([C@@H]2O[C@H](COP(=O)([O-])OP(=O)(O)OC[C@H]3O[C@@H](n4cnc5c(N)ncnc54)[C@H](O)[C@@H]3O)[C@@H](O)[C@H]2O)c1 [Nadide]
B-score [1]: 15.71

Cc1c(NC(=O)c2cccnc2)c(=O)n(-c2ccccc2)n1C [Nifenazone]
B-score [1]: 12.46

O=[N+]([O-])c1ccc(O)c2ncccc12 [Nitroxoline, 8-hydroxy-5-nitroquinoline]
B-score [1]: 23.18 | Hill slope [3]: 3.49 | SI U87 cell line (U87 (glial) cells): 8.77 | SI H4 cell line (H4 (glial) cells): 1.96 | SI HEK-293T cell line (HEK-293T (kidney) cells): 1.71 | SI HFF-1 cell line (HFF-1 (fibroblast) cells): 18.23 | SI Hep-G2 cell line (Hep-G2 (liver) cells): 3.29 | SI mean of all cell lines [2]: 6.79

N=C(N)c1ccc(OCCCCCOc2ccc(C(=N)N)cc2)cc1 [Pentamidine isethionate]
B-score [1]: 15.21 | SI U87 cell line (U87 (glial) cells): 2.26 | SI H4 cell line (H4 (glial) cells): 0.63 | SI HEK-293T cell line (HEK-293T (kidney) cells): 0.52 | SI mean of all cell lines [2]: 1.12

CC(=O)[O][Hg][c]1ccccc1 [Phenylmercuric Acetate]
B-score [1]: 20.74

CNC(=C[N+](=O)[O-])NCCSCc1ccc(CN(C)C)o1 [Ranitidine]
B-score [1]: 14.55

O=C(CCCCCCC(=O)Nc1ccccc1)NO [Vorinostat]
B-score [1]: 6.71

Oc1cccc2cccnc12 [compound 2, 8-Hydroxyquinoline]
Hill slope [3]: 1.27

O=[N+]([O-])c1cccc2ncccc12 [compound 3, 5-Nitroquinoline]
Hill slope [3]: 0.93

Oc1ccc(Br)c2cccnc12 [compound 6, 5-Bromo-8-hydroxyquinoline]
Hill slope [3]: 3.35

Cc1ccc(O)c2ncccc12 [compound 7, 5-Methylquinolin-8-ol]
Hill slope [3]: 3.57

O=S(=O)(O)c1ccc(O)c2ncccc12 [compound 13, 8-Hydroxy-5-quinolinesulfonic acid]
Hill slope [3]: 1.21

c1cnc2c(c1)ccc1cccnc12 [compound 14, 1,10-Phenanthroline]
Hill slope [3]: 3.71

[O-][n+]1cccc2cccc(O)c21 [compound 16, 8-Quinolinol N-oxide]
Hill slope [3]: 1.64

CCOc1ccc([N+](=O)[O-])c2cccnc12 [compound 17, 8-Ethoxy-5-nitroquinoline]
Hill slope [3]: 1.37

O=C(O)c1ccc2ccccc2n1 [compound 18, 2-Quinolinecarboxylic acid]
Hill slope [3]: 1.28

O=[N+]([O-])c1cnc2ccccc2c1O [compound 19, 3-Nitro-4-quinolinol]
Hill slope [3]: 1.07
